Assay results as given in patent US20020022586A1, “Method for treating a patient with neoplasia by treatment with a pyrimidine analog” (priority 1998, published 2002).
Some of these results come from one statement about several compounds together.

Test system: T1, cGMP-PDE
T1 construct: other: 10 μM; other: 100 μM; other: enzyme from HT-29 cells; other: 20 μM
Assay: cGMP-PDE inhibition assay, enzyme from HT-29 tumor cells
Assay type: biochemical, human

In the case of `COc1cc(/C=C2/C(C)=C(CC(=O)O)c3cc(F)ccc32)cc(OC)c1OC` [Compound B, (Z)-5-Fluoro-2-methyl-1-(3,4,5-trimethoxybenzylidene)-3-acetic acid], the “cGMP-PDE inhibition at 20 μM” value is reported as “greater than 50%”.
